The nature of this series: Complex stability constant K calculated from the phase-solubility curve. It counts as physicochemical. How it is done: The solubility studies were performed according to the method described below which is well known in the litrature. Excess amounts of the Steroid were added to aqueous solutions of 2,6-dimethyl-β-cyclodextrin. These suspensions were shaken at room temperature during 5 days followed by an equilibration period of 3 days at room temperature. Then an aliquot was centrifuged and the supernatant was filtered through a 0,45 µm membrane filter (Millipore: HV4, Millex). The samples were analysed with the Perkin Elmer Lambda 5 UV/VIS spectrophotometer. The absorbance was read and compared with a blanc and standard calibration curve. […] After calculation of the amount of Steroid dissolved, a phase-solubility diagram was constructed by plotting the dissolved amounts of Steroid as a function of the concentration of 2,6-dimethyl-β-cyclodextrin (see Graph).
From the curve obtained the complex stability constant K was calculated using the formula: [formula]
This complex-stability constant K is also a measure for the solubility of the Steroid in water. The higher this complex-stability constant, the better is the stability of the complex and the higher is the solubility in water.

Regarding `CCC(=O)[C@@]1(C)[C@H](C)C[C@H]2[C@@H]3CCC4=CC(=O)C=C[C@]4(C)[C@H]3[C@@H](O)C[C@@]21C` [Org 6216, 11β-hydroxy-16α,17α,21-trimethyl-▲¹ʼ⁴-pregnadiene-3,20-dione], the K is, setting by setting: (complex with 2,6-dimethyl-β-cyclodextrin) 58000 mL/mmol; (complex with α-cyclodextrin) 380 ml.mmol.⁻¹; (complex with β-cylodextrin) 3400 ml.mmol.⁻¹; (complex with τ-cyclodextrin) 9600 ml.mmol.⁻¹.
